# ± gives the standard deviation of the averaged measurements. The entries are a selection whose mix differs from that of the whole data set.
# Chains of the proteins cited; added tags and fusions are not shown. Lines headed by an entry give the natural chain unless they say otherwise; changes in a name come on top.
# UniProt Q13309, whole entry: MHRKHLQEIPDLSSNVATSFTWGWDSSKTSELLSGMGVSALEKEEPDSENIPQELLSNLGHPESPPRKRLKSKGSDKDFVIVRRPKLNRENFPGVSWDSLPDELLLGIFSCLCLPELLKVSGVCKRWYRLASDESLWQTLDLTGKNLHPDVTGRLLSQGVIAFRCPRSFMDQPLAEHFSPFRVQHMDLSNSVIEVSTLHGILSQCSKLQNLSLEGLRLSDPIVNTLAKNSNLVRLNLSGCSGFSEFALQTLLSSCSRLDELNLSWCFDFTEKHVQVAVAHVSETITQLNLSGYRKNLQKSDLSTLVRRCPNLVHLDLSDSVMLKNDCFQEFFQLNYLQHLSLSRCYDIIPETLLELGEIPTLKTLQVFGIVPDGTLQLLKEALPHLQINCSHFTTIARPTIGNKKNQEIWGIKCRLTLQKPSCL
# UniProt P09211: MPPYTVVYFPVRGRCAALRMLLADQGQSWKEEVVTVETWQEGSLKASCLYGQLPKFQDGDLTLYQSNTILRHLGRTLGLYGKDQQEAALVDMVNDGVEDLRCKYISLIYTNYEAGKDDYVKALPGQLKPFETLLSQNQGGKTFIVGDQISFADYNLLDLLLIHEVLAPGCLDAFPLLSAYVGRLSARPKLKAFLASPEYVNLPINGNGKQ
# UniProt Q9Y376: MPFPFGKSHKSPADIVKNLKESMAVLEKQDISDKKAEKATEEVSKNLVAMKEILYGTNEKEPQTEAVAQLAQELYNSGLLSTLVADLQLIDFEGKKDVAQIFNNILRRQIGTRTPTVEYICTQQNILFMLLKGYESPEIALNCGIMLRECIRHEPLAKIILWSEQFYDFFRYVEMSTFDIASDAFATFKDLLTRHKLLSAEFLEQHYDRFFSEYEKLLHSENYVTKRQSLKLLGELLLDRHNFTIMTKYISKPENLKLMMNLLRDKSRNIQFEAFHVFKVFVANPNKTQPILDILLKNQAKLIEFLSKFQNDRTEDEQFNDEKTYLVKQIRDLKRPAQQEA
# UniProt Q9UBW5: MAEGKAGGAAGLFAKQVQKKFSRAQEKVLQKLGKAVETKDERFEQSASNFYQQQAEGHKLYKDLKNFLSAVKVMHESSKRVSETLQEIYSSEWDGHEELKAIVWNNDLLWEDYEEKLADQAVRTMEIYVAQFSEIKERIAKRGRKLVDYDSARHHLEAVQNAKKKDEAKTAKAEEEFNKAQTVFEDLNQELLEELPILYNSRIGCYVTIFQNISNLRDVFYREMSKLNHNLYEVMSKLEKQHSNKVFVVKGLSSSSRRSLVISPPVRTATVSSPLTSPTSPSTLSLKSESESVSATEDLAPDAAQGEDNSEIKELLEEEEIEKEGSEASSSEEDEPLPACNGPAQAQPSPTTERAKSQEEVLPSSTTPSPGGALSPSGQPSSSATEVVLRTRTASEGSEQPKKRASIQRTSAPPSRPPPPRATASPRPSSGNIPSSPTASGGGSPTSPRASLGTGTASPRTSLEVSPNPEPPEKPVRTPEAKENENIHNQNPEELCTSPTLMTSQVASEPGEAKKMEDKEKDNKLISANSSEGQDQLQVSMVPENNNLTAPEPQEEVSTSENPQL
# UniProt Q8NI36: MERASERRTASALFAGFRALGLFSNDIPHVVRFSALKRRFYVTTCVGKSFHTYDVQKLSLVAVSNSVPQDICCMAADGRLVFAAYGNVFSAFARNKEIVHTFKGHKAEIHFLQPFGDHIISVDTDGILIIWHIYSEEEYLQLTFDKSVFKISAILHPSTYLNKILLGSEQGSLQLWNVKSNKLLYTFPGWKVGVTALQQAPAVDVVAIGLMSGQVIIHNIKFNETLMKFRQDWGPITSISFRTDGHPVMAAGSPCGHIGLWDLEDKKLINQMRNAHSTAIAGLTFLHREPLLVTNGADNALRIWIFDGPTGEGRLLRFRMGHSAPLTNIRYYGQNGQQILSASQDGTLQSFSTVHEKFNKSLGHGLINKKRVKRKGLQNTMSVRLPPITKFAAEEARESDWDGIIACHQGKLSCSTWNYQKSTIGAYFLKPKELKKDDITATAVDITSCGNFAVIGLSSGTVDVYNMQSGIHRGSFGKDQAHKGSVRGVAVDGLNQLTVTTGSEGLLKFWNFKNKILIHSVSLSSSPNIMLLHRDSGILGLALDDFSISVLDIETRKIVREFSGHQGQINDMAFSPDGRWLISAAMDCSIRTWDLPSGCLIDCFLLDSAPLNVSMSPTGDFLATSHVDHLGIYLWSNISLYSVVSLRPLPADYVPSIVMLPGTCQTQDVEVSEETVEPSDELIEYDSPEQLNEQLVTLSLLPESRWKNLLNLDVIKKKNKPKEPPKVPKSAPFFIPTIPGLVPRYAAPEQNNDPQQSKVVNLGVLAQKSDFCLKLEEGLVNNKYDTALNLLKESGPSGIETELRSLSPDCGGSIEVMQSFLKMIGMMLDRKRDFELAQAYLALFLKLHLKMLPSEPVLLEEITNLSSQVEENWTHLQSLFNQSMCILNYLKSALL
# UniProt Q9UPT6: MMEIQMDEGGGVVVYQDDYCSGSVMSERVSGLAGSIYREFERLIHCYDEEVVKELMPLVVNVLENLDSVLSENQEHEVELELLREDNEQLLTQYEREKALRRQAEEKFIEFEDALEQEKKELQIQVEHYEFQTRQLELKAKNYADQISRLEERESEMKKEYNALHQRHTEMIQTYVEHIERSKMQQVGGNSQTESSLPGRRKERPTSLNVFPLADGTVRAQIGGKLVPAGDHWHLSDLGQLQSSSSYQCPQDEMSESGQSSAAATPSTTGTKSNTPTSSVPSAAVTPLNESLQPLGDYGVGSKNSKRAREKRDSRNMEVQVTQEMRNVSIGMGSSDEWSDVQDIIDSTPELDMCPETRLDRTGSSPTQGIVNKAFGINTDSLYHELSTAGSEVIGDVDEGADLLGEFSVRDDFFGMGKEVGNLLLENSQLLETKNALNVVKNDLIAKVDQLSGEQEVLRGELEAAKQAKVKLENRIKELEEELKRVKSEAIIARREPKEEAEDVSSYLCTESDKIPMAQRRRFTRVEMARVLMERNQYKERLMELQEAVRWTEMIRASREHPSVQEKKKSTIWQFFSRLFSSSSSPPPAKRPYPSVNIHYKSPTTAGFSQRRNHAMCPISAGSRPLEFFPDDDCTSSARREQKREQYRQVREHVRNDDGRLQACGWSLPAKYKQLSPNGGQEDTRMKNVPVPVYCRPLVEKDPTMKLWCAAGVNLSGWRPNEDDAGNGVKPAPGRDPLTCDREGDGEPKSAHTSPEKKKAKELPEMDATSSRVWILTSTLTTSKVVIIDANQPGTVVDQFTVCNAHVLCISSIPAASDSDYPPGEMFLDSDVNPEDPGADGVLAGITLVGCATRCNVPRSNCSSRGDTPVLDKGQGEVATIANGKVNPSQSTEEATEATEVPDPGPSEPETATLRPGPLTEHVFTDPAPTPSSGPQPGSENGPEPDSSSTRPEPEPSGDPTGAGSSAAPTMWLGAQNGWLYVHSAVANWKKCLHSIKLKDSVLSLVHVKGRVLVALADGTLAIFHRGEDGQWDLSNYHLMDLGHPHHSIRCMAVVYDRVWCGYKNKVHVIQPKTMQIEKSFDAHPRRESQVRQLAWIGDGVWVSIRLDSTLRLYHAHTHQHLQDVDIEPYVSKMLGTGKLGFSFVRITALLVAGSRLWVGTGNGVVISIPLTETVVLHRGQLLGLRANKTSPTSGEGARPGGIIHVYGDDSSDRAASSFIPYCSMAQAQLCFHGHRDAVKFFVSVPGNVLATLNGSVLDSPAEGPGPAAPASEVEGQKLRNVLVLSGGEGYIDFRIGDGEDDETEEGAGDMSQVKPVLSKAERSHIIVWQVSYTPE
# UniProt Q6UXD5: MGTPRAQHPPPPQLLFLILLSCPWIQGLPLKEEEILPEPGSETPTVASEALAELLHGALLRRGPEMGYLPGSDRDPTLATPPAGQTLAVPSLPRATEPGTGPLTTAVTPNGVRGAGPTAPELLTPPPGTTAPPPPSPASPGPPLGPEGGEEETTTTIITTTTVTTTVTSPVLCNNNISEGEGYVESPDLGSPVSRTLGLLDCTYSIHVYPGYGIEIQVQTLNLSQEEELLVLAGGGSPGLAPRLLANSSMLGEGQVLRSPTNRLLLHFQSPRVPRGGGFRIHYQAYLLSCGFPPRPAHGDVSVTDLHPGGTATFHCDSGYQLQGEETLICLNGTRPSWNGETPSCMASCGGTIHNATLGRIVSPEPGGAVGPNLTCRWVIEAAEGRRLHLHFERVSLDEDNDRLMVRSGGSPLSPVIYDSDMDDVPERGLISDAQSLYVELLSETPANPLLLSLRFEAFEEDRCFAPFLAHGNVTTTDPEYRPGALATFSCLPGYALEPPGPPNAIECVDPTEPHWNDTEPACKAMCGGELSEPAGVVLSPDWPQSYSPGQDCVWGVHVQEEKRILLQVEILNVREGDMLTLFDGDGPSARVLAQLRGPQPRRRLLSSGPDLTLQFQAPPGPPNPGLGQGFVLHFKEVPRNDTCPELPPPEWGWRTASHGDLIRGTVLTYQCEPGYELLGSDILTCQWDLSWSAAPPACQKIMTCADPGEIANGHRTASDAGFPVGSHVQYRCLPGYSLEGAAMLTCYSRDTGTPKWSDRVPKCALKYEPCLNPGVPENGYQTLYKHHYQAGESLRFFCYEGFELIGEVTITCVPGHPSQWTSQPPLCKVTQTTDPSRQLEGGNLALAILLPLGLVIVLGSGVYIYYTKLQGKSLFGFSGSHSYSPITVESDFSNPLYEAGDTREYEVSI
# UniProt P04632: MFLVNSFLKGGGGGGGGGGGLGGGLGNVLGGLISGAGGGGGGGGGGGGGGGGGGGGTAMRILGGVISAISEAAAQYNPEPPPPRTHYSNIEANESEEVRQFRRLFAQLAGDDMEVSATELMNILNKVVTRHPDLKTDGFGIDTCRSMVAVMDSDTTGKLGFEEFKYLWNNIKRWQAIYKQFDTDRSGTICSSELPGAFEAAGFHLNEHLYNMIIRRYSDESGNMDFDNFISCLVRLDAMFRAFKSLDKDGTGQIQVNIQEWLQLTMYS
# Compound: Nc1ncnc2c1ncn2[C@@H]1O[C@H](COP(=O)(O)OP(=O)(O)NP(=O)(O)O)[C@@H](O)[C@H]1O [adenylyl imidodiphosphate]
# Test: NP40-soluble protein abundance relative to vehicle (solubility fold change) (ratio); higher = more soluble protein in presence of AMP-PNP
# Outline: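 Eight concentrations, 0.1 to 10 mM, were tested on Jurkat crude lysate for 10 min at room temperature and then 3 min at 37 °C, in three independent experiments. The lysate was solubilised with 0.8% NP40 and benzonase, ultracentrifuged, and the supernatant TMT-labelled for LC-MS/MS. Each value is the fold change against the detergent-processed vehicle in its own replicate, from vsn-normalised intensities.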
Target,NP40-soluble protein abundance (concentration: 1mM),NP40-soluble protein abundance (concentration: 2mM),NP40-soluble protein abundance (concentration: 4mM),NP40-soluble protein abundance (concentration: 6mM),NP40-soluble protein abundance (concentration: 8mM),NP40-soluble protein abundance (concentration: 10mM)
A0A0A0MTL5|Q13309 and related entries (UniProt Q13309),0.986 ± 0.041,0.965 ± 0.037,0.976 ± 0.029,0.932 ± 0.053,0.923 ± 0.036,0.91 ± 0.014
A0A087X243|P09211 (UniProt P09211),0.979 ± 0.033,0.927 ± 0.045,0.95 ± 0.015,0.986 ± 0.035,0.993 ± 0.024,0.969 ± 0.039
A0A087X0K1|Q9Y376 (UniProt Q9Y376),1 ± 0.015,0.997 ± 0.019,1.01 ± 0.012,1.02 ± 0.06,1.03 ± 0.042,1.02 ± 0.038
A0A087X188|Q9UBW5 (UniProt Q9UBW5),0.999 ± 0.04,1.06 ± 0.12,1.02 ± 0.053,1.04 ± 0.012,1.02 ± 0.036,1.05 ± 0.011
A0A0A0MTB8|Q8NI36 (UniProt Q8NI36),1.1 ± 0.06,1.15 ± 0.11,1.37 ± 0.12,1.55 ± 0.11,1.73 ± 0.16,1.78 ± 0.086
A0A087WYG2|E9PFH7 and related entries (UniProt Q9UPT6),1.01 ± 0.034,1.03 ± 0.025,1.03 ± 0.025,0.988 ± 0.026,0.981 ± 0.022,1 ± 0.023
A0A087WYL5|Q6UXD5-3|Q6UXD5-5|Q6UXD5-6|Q6UXD5 and related entries (UniProt Q6UXD5),1 ± 0.027,1.01 ± 0.036,0.994 ± 0.034,0.984 ± 0.012,0.994 ± 0.047,0.998 ± 0.044
A0A0C4DGQ5|K7EIV0 and related entries (UniProt P04632),1.04 ± 0.036,1.05 ± 0.041,1.01 ± 0.022,1.02 ± 0.035,1.02 ± 0.024,1.03 ± 0.025

# Source: the supplement of paper PMC6411743
